Test results reported in US12569503B2, “Methods and compositions for substituted axially-chiral cannabinol analogs” (University of Florida Research Foundation, Inc., priority 2019, dated 2026).

System: C57bl/6j mice
Experiment: Reduction of body temperature (hypothermia)
Conditions: ratio of ED50 values; for Potency Ratio (Temp./Allodynia): Table 1; for Potency Ratio (Temp/Allodynia): Table 4

Row | Compound | Potency Ratio (Temp./Allodynia) | Potency Ratio (Temp/Allodynia)
1 | 10-methyl-CBN [ax-CBN] | 1.9 | 2.01
2 | CCCCCc1cc(O)c2c(c1)OC(C)(C)[C@@H]1CCC(C)=C[C@@H]21 [THC, (−)-trans-Δ^9-tetrahydrocannabinol] | 0.7 | 0.58
